# Data published in PubChem BioAssay AID445 (National Center for Advancing Translational Sciences (NCATS), 2006).
# The other results are listed elsewhere or left out. Further columns of the screen follow, without active or inactive calls. Compounds called inactive in the main read-out are mostly missing here. Potencies come from curve fits of mixed quality, noted in brackets.
# Assay: IkB Signaling
# Conditions: ABC-DLBCL IkBa-CBG/CBR dual luciferase ratio (green luciferase fused to IkBa over red control in OCI-Ly3 lymphoma cells), 4 h
# Summary of the method: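 In this assay, an IκBα–CBG68 fusion accumulates when IKK-driven degradation is blocked; native CBR normalizes for cell number. OCI-Ly3 cells were treated 4 h with compound and doxycycline, then green and red light read after Chroma-Glo addition.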
# [1] = measured here: control luc red channel unless noted
compound,measurement,setting,value
O=C(Cn1c(=O)n(-c2ccc(Cl)cc2)c(=O)c2sc3ccccc3c21)NC1CCCC1,AC50,[1],"39.8 µM [falling, single point]"
COC(=O)c1ccccc1NC(=O)c1cc2cc(C)ccc2n1C,AC50,[1],"3.98 µM [rising, partial curve]"
CCc1nc2cccnc2n1-c1ccc(CC(=O)Nc2cccc(C)c2C)cc1,AC50,[1],"31.6 µM [falling, single point]"
c1ccc(CN2CCN(c3ncnc4c3cnn4-c3ccccc3)CC2)cc1,AC50,[1],"39.8 µM [rising, single point]"
CCc1cc(C(=O)Cc2ccc(F)cc2)c(O)cc1O,AC50,[1],"7.94 µM [falling, full curve, poor fit]"
CCc1cccc(NC(=O)C2CCC(CNS(=O)(=O)c3ccc(Br)s3)CC2)c1 (centres undefined),AC50,[1],"12.6 µM [falling, partial curve]"
Cc1cc(NC(=O)c2noc3c2CCCC3)nn1Cc1ccc(Cl)cc1,AC50,[1],"10 µM [falling, partial curve]"
CSCCC(NC(=O)c1cncc(Br)c1)C(=O)O (centres undefined),AC50,[1],"20 µM [falling, partial curve]"
Cc1ccccc1Cn1c2ccccc2c2cnn(CC(=O)NCc3ccccn3)c(=O)c21,AC50,[1],"31.6 µM [falling, single point]"
O=C(NCCc1ccccc1)C1CCC(CNS(=O)(=O)c2ccc(Cl)cc2)CC1 (centres undefined),AC50,[1],"20 µM [rising, partial curve, poor fit]"
Cc1ccc(C)c(N2CCN(C(=O)NCc3noc4ccc(C)cc34)CC2)c1,AC50,[1],"12.6 µM [falling, partial curve]"
COc1ccc(-c2nc(N3CCOCC3)nc3n[nH]c(N)c23)cc1,AC50,[1],"39.8 µM [falling, single point]"
Cc1nn(-c2ccc(C(=O)O)cc2)c(=O)c2ccccc12,AC50,[1],"15.8 µM [falling, partial curve]"
CCOC(=O)c1ccc(N=c2sc(C(=O)OC)cc(=O)n2CCCN2CCOCC2)cc1,AC50,[1],"10 µM [falling, partial curve]"
COc1ccc2[nH]c3c(c2c1)CCN(C(=O)c1cccc(Cl)c1)C3c1ccc(F)cc1 (centres undefined),AC50,[1],"39.8 µM [falling, single point]"
COc1cc2cc(C(=O)Nc3ccccc3)c(N)nc2cc1OC,AC50,measured here: IkB-luc green channel,"15.8 µM [falling, partial curve]"
same,AC50,measured here: control luc red channel,"25.1 µM [falling, partial curve]"
COc1ccc(C(=O)c2oc3ccccc3c2N)cc1,AC50,[1],"0.126 µM [rising, full curve, poor fit]"
COc1ccc(-c2cn3cccnc3n2)cc1NC(=O)Nc1ccc(Cl)cc1,AC50,[1],"39.8 µM [falling, single point]"
Cn1c(C(=O)NCCc2c[nH]c3ccccc23)cc2sccc21,AC50,[1],"31.6 µM [falling, single point]"
O=C(Nc1ccc(S(=O)(=O)Nc2ncccn2)cc1)c1cc(=O)c2ccccc2o1,AC50,[1],"3.16 µM [falling, single point]"
O=C(NCc1ccco1)c1cc2ccccc2o1,AC50,[1],"7.94 µM [falling, full curve]"
CCOc1ccc(NC(=O)c2ccc3c(c2)CCN3S(=O)(=O)CC)cc1,AC50,[1],"10 µM [falling, partial curve]"
O=C(CC1C(=O)N(c2ccccc2)C(=O)N1Cc1ccc(F)cc1)Nc1cccc(F)c1 (centres undefined),AC50,[1],"31.6 µM [falling, single point]"
O=C(CSc1nc(=O)n(CCN2CCOCC2)c2c1CCC2)Nc1ccccc1,AC50,[1],"3.98 µM [rising, partial curve, poor fit]"
CN(C)c1ccc(-c2ccc3ncnc(N(C)C)c3c2)cc1,AC50,[1],"1.26 µM [rising, partial curve] [measured here: IkB-luc green channel]"
Cc1ccc2c(c1)N(C(=O)CCC(=O)NCc1ccccc1Cl)CC(C)O2 (centres undefined),AC50,[1],"15.8 µM [falling, single point]"
Cc1ccccc1Nc1nc(-c2cccc(Cl)c2)c2c(n1)-c1ccccc1OC2,AC50,[1],"10 µM [falling, partial curve]"
CC(NC(=O)Cn1c(=O)oc2cc(S(=O)(=O)NCc3ccccc3)ccc21)c1ccccc1 (centres undefined),AC50,[1],"31.6 µM [falling, single point]"
COc1ccc(Nc2nc(N)c3cc(OC)c(OC)cc3n2)cc1,AC50,[1],"15.8 µM [falling, partial curve]"
C=CCOc1c(Cl)cc(C2NC(=O)NC(C)=C2C(=O)OC)cc1Cl (centres undefined),AC50,[1],"20 µM [falling, partial curve]"
COc1ccc(CNC(=O)c2c3c(nc4ccccc24)C(=O)N(C2CCCCC2)C3)cc1,AC50,[1],"15.8 µM [falling, partial curve]"
CCOC(=O)c1oc2ccc(S(=O)(=O)n3nc(-c4ccc(Br)cc4)cc3N)cc2c1C,AC50,[1],"0.158 µM [falling, full curve]"
COc1cccc(CNC(=O)c2nn(-c3ccc(C)cc3)c(=O)c3c2c2ccccc2n3C)c1,AC50,[1],"12.6 µM [rising, partial curve]"
COc1ccccc1Nc1nn2c(=O)c3ccc(C(=O)N4CCCC(C)C4)cc3nc2s1 (centres undefined),AC50,[1],"12.6 µM [falling, partial curve]"
COc1ccccc1CNS(=O)(=O)c1ccc2c(c1)NC(=O)CC(=O)N2,AC50,[1],"25.1 µM [falling, single point]"
Cc1ccc(-n2nc(C)c3c(C(=O)NCc4ccccc4)cc(C4CC4)nc32)cc1,AC50,[1],"39.8 µM [falling, single point]"
COc1ccc(C2CC(=O)N(Cc3cccc(F)c3)c3ccccc3S2)cc1 (centres undefined),AC50,[1],"39.8 µM [falling, partial curve, poor fit]"
CCCc1cnc2c(c1SCC(=O)Nc1ccc(C)c(Cl)c1)c(=O)n(C)c(=O)n2C,AC50,[1],"25.1 µM [falling, single point]"
CCOc1ccccc1NC(=O)c1ccc(F)c(S(=O)(=O)NCc2ccc3c(c2)OCO3)c1,AC50,[1],"39.8 µM [falling, single point]"
Cc1cccc(NC(=O)c2ccccc2Br)n1,AC50,[1],"0.251 µM [falling, full curve, poor fit]"
O=c1cc(-c2ccccc2)nc2nc(-c3ccccc3)[nH]n12,AC50,[1],"0.794 µM [falling, full curve]"
CCOc1ccccc1NC(=O)N1CCc2c(sc(C)c2CC)C1c1ccccc1 (centres undefined),AC50,[1],"10 µM [falling, full curve, poor fit]"
Cc1ccc(N2CCN(S(=O)(=O)c3ccc(F)c(C)c3)CC2)c(C)c1,AC50,[1],"7.94 µM [falling, partial curve]"
COc1ccccc1-c1nnc(SCC(=O)Nc2ccccc2)o1,AC50,[1],"0.158 µM [falling, full curve]"
Cc1noc(/C=C/c2cccs2)c1S(=O)(=O)N1CCC(C(=O)NCc2ccccc2Cl)CC1,AC50,[1],"0.2 µM [rising, full curve, poor fit]"
Cc1ccc(N2C(=O)c3oc4ccccc4c(=O)c3C2c2cccc(O)c2)nc1 (centres undefined),AC50,[1],"20 µM [falling, partial curve]"
Cc1ccc(C)c(NC(=O)CSc2nnc(CCCCCNC(=O)OC(C)(C)C)o2)c1,AC50,[1],"7.94 µM [falling, partial curve]"
CCc1ccccc1N1CC(c2nc3ccccc3n2CCCCOc2ccccc2)CC1=O (centres undefined),AC50,[1],"7.94 µM [falling, partial curve]"
CC(=O)c1ccc(N2CCN(S(=O)(=O)c3ccc4c(c3)C(C)(C)C(=O)N4)CC2)cc1,AC50,[1],"0.0126 µM [falling, full curve, poor fit]"
Oc1ccccc1-c1nc(/C=C/c2ccc(F)cc2)nn1-c1ccccc1,AC50,[1],"1.26 µM [falling, partial curve]"
COc1cccc(/C=C/C(=O)Nc2ccc3nc(N4CCN(C)CC4)cc(C)c3c2)c1OC,AC50,[1],"31.6 µM [falling, single point]"
COC(=O)c1cccc(-n2c(CCC(=O)O)ccc2-c2cccs2)c1,AC50,[1],"12.6 µM [falling, partial curve]"
COc1ccc2[nH]c(=O)c(CN(Cc3cccs3)S(=O)(=O)c3cccc4nsnc34)cc2c1,AC50,[1],"3.16 µM [falling, partial curve]"
O=C(c1cc2ccc3cccnc3c2[nH]1)N1CCN(c2ccccc2)CC1,AC50,[1],"39.8 µM [falling, single point]"
CCOC(=O)Nc1ccc2c(c1)Nc1ccccc1S2,AC50,[1],"12.6 µM [falling, partial curve]"
COc1ccc(NC(=O)c2cc(-c3ccc(C)o3)nc3ccccc23)cc1OC,AC50,[1],"10 µM [falling, partial curve]"
CCc1ccccc1NC(=O)C1CCCN(C(=O)c2cnn(-c3ccccc3)c2-n2cccc2)C1 (centres undefined),AC50,[1],"25.1 µM [falling, single point]"
c1csc(CN2CCN(Cc3cccs3)C2c2cccs2)c1,AC50,[1],"25.1 µM [rising, partial curve] [measured here: IkB-luc green channel]"
CCOc1ccc(N2CC(NC(=O)c3ccc(S(=O)(=O)N4CCCCC4)cc3)CC2=O)cc1 (centres undefined),AC50,[1],"6.31 µM [falling, single point]"
Cc1ccc(NC(=O)CSc2nc3ccccc3nc2N2CCOCC2)cc1,AC50,[1],"39.8 µM [falling, single point]"
Cc1ccc(C(c2nnnn2Cc2cccs2)N2CCN(Cc3ccc4c(c3)OCO4)CC2)cc1 (centres undefined),AC50,[1],"12.6 µM [falling, partial curve]"
COc1cc(NC(=O)CSc2ncccc2C(=O)OC(C)C)cc(OC)c1,AC50,[1],"0.00631 µM [falling, full curve, poor fit]"
CCN1C(C(=O)c2ccccc2)=C(OC(=O)c2ccccc2OC)c2ccccc2S1(=O)=O,AC50,[1],"7.94 µM [falling, full curve]"
